Laboratory results from patent US20030103978A1.
These are yes or no findings as the source states them, for the method shown. Some binding calls cover weakened binding; strength is not graded here. Sequences can lack the tags named with a protein.

Target: T1, soluble ODAR-Fc fusion (FLAG-human ODAR extracellular domain-human Fc) (human) (UniProt Q9Y6Q6)
T1 sequence (looked up): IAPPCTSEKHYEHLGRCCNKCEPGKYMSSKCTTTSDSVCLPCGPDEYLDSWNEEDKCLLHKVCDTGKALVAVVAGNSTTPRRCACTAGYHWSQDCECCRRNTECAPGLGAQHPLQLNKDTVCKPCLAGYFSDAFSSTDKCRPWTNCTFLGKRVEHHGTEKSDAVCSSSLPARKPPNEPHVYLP
Assay: FRET competition assay: unlabelled OPGbp[143-317] (TBS) competing with Eu-labelled OPGbp[143-317] for sODAR-Fc (anti-human Fc-APC); ratio 665 nm/620 nm against Conc (nM), log axis

- binding: binds
B1: human OPGbp[143-317] (ligand, UniProt O14788 143-317, looked up)
chain: EKAMVDGSWLDLAKRSKLEAQPFAHLTINATDIPSGSHKVSLSSWYHDRGWAKISNMTFSNGKLIVNQDGFYYLYANICFRHHETSGDLATEYLQLMVYVTKTSIKIPSSHTLMKGGSTKYWSGNSEFHFYSINVGGFFKLRSGEEISIEVSNPSLLDPDQDATYFGAFKVRDID
